# Data as given in PubChem BioAssay AID1259308 (NCATS, 2017)
# Purpose: 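Knock-downs that increase output of a recombinant reporter protein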 (primary screen)
# Cell system: human HEK293 embryonic kidney cells stably expressing firefly luciferase (HEK-CMV-Luc2-Hygro)
# Reagent: single siRNA against human genes, 0.8 pmol siRNA per well
# Timing: 72 h
# Detection: 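Luciferase light (ONE-Glo) measured on one replicate plate set and viability (CellTiter-Glo) on the other, scaled to a negative control siRNA, with robust z-scores and luciferase per cell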
# Direction: total luciferase, z-score and total luciferase, % of control: higher = more reporter protein produced; luciferase per cell, z-score: higher = more reporter output per viable cell; viable cells, % of control: higher = more viable cells
# Hit rule: 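An siRNA counts as active if its total luciferase robust z-score exceeds 3; genes with two or more such siRNAs out of three were retested with fresh siRNAs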
# Meaning of the calls: active = raised luciferase; inactive = no rise
# Shown is one part, drawn at random, of about 59,000 reagents tested. About 1,510 of all reagents (2.6%) were called active. 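Calls use total luciferase alone and ignore viability, so some active siRNAs may act by altering cell number.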 The numbers tell different reagents against one gene apart.
gene knocked down,reagent no.,"total luciferase, z-score","total luciferase, % of control","luciferase per cell, z-score","viable cells, % of control",outcome
GTF2H2B (general transcription factor IIH subunit 2B (pseudogene)),1,1.52,112,1.1,93.8,inactive
GTF2H2B (general transcription factor IIH subunit 2B (pseudogene)),2,0.858,99,-0.0518,112,inactive
GTF2H2B (general transcription factor IIH subunit 2B (pseudogene)),3,0.357,89,0.0671,97.7,inactive
SEL1L (SEL1L adaptor subunit of SYVN1 ubiquitin ligase),1,-1.8,46.1,-2.37,96.1,inactive
SEL1L (SEL1L adaptor subunit of SYVN1 ubiquitin ligase),2,-0.97,62.6,-1.31,98.9,inactive
SEL1L (SEL1L adaptor subunit of SYVN1 ubiquitin ligase),3,-0.603,69.9,-0.891,98.8,inactive
MMP21 (matrix metallopeptidase 21),1,0.234,86.5,0.0581,95.2,inactive
MMP21 (matrix metallopeptidase 21),2,-0.702,67.9,-1.02,99.3,inactive
MMP21 (matrix metallopeptidase 21),3,0.508,92,0.416,92.1,inactive
RIBC1 (RIB43A domain with coiled-coils 1),1,-0.244,77,-0.695,103,inactive
RIBC1 (RIB43A domain with coiled-coils 1),2,-1.68,48.4,-1.66,83.7,inactive
RIBC1 (RIB43A domain with coiled-coils 1),3,0.0643,83.2,0.84,74.5,inactive
TPM3 (tropomyosin 3),1,3.69,155,2.46,90.9,active
TPM3 (tropomyosin 3),2,0.363,89.1,-0.228,106,inactive
TPM3 (tropomyosin 3),3,2.85,139,2.76,74.9,inactive
FAM209A (family with sequence similarity 209 member A),1,2.82,138,2.78,74.1,inactive
FAM209A (family with sequence similarity 209 member A),2,7.91,239,4.06,91.8,active
FAM209A (family with sequence similarity 209 member A),3,-1.28,56.4,-0.254,67.4,inactive
HNRNPC (heterogeneous nuclear ribonucleoprotein C),1,3.89,159,2.29,97.4,active
HNRNPC (heterogeneous nuclear ribonucleoprotein C),2,4.83,178,2.74,96.6,active
HNRNPC (heterogeneous nuclear ribonucleoprotein C),3,4.33,168,3.55,73.8,active
OAZ3 (ornithine decarboxylase antizyme 3),1,-0.379,74.3,-0.208,87.7,inactive
OAZ3 (ornithine decarboxylase antizyme 3),2,0.991,102,1.53,75.8,inactive
OAZ3 (ornithine decarboxylase antizyme 3),3,0.434,90.5,0.207,95.8,inactive
PKIG (cAMP-dependent protein kinase inhibitor gamma),1,1.93,120,1.62,87.8,inactive
PKIG (cAMP-dependent protein kinase inhibitor gamma),2,-0.342,75.1,-0.82,104,inactive
PKIG (cAMP-dependent protein kinase inhibitor gamma),3,0.375,89.3,0.81,80.7,inactive
TUBB2B (tubulin beta 2B class IIb),1,-1.67,48.7,-1.77,86.7,inactive
TUBB2B (tubulin beta 2B class IIb),2,0.0221,82.3,-0.768,113,inactive
TUBB2B (tubulin beta 2B class IIb),3,-1.23,57.3,-1.55,96.3,inactive
RRP1 (ribosomal RNA processing 1),1,-1.91,43.8,-1.91,81,inactive
RRP1 (ribosomal RNA processing 1),2,-1.5,52,-0.744,70.7,inactive
RRP1 (ribosomal RNA processing 1),3,0.152,84.9,-0.0395,95.9,inactive

Next part, starting with the last 5 of the part before.
gene knocked down,reagent no.,"total luciferase, z-score","total luciferase, % of control","luciferase per cell, z-score","viable cells, % of control",outcome
TUBB2B (tubulin beta 2B class IIb),2,0.0221,82.3,-0.768,113,inactive
TUBB2B (tubulin beta 2B class IIb),3,-1.23,57.3,-1.55,96.3,inactive
RRP1 (ribosomal RNA processing 1),1,-1.91,43.8,-1.91,81,inactive
RRP1 (ribosomal RNA processing 1),2,-1.5,52,-0.744,70.7,inactive
RRP1 (ribosomal RNA processing 1),3,0.152,84.9,-0.0395,95.9,inactive
ZBTB1 (zinc finger and BTB domain containing 1),1,0.601,93.8,0.544,90.9,inactive
ZBTB1 (zinc finger and BTB domain containing 1),2,-0.532,71.3,-0.103,81.9,inactive
ZBTB1 (zinc finger and BTB domain containing 1),3,0.154,84.9,-0.132,98.3,inactive
NDUFB7 (NADH:ubiquinone oxidoreductase subunit B7),1,0.656,94.9,2,62.7,inactive
NDUFB7 (NADH:ubiquinone oxidoreductase subunit B7),2,0.47,91.2,0.486,89.7,inactive
NDUFB7 (NADH:ubiquinone oxidoreductase subunit B7),3,-0.13,79.3,-0.178,92.9,inactive
ARSH (arylsulfatase family member H),1,-0.131,79.3,1.59,58.3,inactive
ARSH (arylsulfatase family member H),2,2.81,138,1.72,97.9,inactive
ARSH (arylsulfatase family member H),3,-1.91,44,-1.39,70.9,inactive
GKN1 (gastrokine 1),1,0.418,90.2,0.0758,98.8,inactive
GKN1 (gastrokine 1),2,-0.0607,80.7,1.01,69.1,inactive
GKN1 (gastrokine 1),3,-0.143,79,-0.386,97.8,inactive
COX4I1 (cytochrome c oxidase subunit 4I1),1,1.43,110,1.66,79.6,inactive
COX4I1 (cytochrome c oxidase subunit 4I1),2,-1,61.9,-1.14,93.3,inactive
COX4I1 (cytochrome c oxidase subunit 4I1),3,0.397,89.8,-0.353,110,inactive
SPIRE2 (spire type actin nucleation factor 2),1,-0.845,65.1,-0.616,85.5,inactive
SPIRE2 (spire type actin nucleation factor 2),2,1.87,119,0.999,102,inactive
SPIRE2 (spire type actin nucleation factor 2),3,-2.01,42,-1.47,69.1,inactive
IPO13 (importin 13),1,-0.366,74.6,-0.669,99.4,inactive
IPO13 (importin 13),2,-0.314,75.6,-0.424,94.5,inactive
IPO13 (importin 13),3,0.288,87.6,-0.29,106,inactive
ELSPBP1 (epididymal sperm binding protein 1),1,0.138,84.6,0.557,81.7,inactive
ELSPBP1 (epididymal sperm binding protein 1),2,0.783,97.5,0.945,84.9,inactive
ELSPBP1 (epididymal sperm binding protein 1),3,-0.531,71.3,-0.293,86.1,inactive
